This is one part of the list.
Tests used:
Assay in all cases: log2 fold change, soluble protein after heating vs DMSO (PISA); higher = thermal stabilisation; K562 lysate, 10 uM; active = over 0.2 and 3.5 SD of the protein, either way, in both replicates (recomputed)
lapatinib = compound: CS(=O)(=O)CCNCc1ccc(-c2ccc3ncnc(Nc4ccc(OCc5cccc(F)c5)c(Cl)c4)c3c2)o1 [lapatinib]
Outline: (§1)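 Dounce homogenisation of K562 pellets in PBS pH 7.4 with 1 mM MgCl2 produced a crude extract, used at 1 mg/mL protein. Exposure to 10 μM compound lasted 30 min, and aliquots were then heated for 3 min across 48°C-58°C, pooled and brought to 0.5% NP-40 at 4°C. The supernatant after 21,000xg for 90 min was quantified by TMTpro 16plex LC-MS/MS with channel sums equalised. Duplicate values are given as log-two fold change in thermal stability relative to solvent controls.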

Chains of the proteins cited; added tags and fusions are not shown. Lines headed by an entry give the natural chain unless they say otherwise; changes in a name come on top.
UniProt Q5VTE6: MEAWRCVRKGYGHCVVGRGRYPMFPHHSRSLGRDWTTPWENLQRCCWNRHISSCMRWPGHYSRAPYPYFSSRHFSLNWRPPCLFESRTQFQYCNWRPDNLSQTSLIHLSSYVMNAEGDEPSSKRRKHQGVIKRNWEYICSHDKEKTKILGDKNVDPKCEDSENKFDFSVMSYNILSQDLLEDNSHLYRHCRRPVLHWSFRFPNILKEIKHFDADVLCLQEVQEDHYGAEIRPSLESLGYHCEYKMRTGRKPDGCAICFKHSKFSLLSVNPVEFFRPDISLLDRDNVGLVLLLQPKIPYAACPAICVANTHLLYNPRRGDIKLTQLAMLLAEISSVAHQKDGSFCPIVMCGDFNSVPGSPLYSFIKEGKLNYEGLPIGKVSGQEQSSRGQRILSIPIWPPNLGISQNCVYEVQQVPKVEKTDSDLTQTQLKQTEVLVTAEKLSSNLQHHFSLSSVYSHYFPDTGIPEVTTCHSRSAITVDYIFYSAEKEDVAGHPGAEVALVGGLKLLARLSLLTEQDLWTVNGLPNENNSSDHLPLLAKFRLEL
UniProt P31751: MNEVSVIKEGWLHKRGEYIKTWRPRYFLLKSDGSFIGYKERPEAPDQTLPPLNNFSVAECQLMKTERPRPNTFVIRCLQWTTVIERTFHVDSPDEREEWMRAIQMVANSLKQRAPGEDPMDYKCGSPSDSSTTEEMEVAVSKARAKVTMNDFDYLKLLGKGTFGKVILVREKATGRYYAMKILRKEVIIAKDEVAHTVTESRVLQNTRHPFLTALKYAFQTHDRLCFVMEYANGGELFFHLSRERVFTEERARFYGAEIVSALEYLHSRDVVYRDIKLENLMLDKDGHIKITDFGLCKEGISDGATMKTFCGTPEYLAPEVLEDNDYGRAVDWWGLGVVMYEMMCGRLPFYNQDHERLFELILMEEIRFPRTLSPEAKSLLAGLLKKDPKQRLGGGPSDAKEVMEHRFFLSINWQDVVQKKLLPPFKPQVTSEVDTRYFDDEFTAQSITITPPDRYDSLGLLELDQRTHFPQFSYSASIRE
UniProt P30837: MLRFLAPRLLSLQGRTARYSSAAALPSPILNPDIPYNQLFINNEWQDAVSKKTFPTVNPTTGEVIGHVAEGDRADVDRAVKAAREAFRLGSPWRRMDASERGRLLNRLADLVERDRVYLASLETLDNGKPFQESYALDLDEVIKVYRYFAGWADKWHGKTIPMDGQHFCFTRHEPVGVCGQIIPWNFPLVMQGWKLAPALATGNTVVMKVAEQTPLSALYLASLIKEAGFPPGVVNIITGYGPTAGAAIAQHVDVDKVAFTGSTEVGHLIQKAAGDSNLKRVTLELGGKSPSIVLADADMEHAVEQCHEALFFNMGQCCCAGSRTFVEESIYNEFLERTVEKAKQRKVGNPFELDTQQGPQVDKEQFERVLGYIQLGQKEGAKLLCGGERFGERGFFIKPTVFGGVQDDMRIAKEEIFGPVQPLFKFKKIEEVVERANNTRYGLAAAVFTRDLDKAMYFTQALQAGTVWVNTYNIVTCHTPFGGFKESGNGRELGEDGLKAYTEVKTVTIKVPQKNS
UniProt P04075: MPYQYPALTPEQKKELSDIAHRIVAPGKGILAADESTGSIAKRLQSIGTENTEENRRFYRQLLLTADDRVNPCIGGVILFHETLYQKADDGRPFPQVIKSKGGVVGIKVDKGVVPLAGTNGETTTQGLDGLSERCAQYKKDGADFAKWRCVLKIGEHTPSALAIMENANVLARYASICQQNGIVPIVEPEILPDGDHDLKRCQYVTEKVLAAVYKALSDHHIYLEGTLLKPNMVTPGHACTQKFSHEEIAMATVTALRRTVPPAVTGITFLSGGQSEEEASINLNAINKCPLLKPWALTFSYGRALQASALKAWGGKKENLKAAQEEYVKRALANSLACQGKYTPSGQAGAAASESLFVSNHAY
UniProt Q9Y2T2: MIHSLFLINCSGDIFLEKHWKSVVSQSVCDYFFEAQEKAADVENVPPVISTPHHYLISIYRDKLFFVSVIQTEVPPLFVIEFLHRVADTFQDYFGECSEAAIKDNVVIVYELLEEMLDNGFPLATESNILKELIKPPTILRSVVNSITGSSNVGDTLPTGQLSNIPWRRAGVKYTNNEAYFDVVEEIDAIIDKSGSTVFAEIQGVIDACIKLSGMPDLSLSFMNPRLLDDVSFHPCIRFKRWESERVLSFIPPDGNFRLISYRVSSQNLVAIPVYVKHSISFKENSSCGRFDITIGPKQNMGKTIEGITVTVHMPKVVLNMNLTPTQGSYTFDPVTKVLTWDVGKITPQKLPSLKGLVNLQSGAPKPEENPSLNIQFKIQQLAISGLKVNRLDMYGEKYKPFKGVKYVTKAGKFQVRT
UniProt P51649: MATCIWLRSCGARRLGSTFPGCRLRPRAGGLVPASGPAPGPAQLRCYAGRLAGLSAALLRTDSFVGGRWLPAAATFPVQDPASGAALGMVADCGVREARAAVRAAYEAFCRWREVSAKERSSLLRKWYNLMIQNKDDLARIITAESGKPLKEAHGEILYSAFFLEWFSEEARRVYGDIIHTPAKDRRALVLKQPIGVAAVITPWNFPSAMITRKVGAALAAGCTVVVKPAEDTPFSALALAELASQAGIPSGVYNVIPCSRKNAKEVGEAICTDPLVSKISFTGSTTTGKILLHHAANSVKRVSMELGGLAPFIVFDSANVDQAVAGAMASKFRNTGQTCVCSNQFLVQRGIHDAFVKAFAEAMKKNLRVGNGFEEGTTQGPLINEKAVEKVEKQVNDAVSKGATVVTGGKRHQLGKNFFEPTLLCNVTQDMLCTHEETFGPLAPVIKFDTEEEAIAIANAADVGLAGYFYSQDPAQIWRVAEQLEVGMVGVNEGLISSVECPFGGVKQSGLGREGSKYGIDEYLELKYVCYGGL
UniProt P08133: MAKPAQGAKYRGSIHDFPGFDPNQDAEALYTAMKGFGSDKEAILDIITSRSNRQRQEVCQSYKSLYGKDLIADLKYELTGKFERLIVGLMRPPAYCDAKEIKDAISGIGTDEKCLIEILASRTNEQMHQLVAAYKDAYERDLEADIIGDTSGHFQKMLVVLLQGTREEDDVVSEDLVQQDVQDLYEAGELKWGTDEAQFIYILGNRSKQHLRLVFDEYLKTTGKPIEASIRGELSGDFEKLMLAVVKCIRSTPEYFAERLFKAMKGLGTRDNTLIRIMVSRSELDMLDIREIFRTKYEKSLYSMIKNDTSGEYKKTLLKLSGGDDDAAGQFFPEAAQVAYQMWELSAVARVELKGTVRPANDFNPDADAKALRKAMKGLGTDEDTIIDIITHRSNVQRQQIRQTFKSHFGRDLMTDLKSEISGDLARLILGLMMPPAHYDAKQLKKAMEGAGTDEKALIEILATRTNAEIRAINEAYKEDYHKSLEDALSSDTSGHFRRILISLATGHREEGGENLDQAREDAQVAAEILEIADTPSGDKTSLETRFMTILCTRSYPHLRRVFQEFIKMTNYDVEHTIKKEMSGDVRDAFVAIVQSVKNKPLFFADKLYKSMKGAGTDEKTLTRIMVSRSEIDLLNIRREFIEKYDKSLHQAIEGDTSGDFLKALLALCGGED
UniProt Q9NW15: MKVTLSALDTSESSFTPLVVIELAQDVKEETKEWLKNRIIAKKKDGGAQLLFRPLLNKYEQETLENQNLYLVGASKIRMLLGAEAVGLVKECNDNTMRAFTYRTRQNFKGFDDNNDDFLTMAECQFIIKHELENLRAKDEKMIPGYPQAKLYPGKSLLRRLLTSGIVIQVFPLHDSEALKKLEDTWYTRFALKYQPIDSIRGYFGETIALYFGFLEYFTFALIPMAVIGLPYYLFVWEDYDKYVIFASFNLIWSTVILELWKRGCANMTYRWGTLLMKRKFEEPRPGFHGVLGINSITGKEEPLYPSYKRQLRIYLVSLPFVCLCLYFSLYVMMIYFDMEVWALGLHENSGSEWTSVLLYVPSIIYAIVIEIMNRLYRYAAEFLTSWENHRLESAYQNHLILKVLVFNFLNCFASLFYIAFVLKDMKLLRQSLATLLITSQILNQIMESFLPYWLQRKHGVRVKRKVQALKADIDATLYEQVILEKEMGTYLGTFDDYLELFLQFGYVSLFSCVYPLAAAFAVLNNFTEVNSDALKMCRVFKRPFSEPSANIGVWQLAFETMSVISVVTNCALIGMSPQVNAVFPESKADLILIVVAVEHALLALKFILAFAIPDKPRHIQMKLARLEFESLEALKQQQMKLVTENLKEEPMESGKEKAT
UniProt P09525: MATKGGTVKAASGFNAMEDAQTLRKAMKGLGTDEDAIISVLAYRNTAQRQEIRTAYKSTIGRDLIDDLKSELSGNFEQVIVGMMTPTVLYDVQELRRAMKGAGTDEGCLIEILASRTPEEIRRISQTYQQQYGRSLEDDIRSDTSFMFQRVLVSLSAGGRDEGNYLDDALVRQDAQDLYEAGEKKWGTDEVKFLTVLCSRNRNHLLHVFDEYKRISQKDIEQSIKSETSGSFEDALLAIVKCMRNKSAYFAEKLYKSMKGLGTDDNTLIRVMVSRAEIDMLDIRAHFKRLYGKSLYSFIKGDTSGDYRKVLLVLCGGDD
UniProt P12429: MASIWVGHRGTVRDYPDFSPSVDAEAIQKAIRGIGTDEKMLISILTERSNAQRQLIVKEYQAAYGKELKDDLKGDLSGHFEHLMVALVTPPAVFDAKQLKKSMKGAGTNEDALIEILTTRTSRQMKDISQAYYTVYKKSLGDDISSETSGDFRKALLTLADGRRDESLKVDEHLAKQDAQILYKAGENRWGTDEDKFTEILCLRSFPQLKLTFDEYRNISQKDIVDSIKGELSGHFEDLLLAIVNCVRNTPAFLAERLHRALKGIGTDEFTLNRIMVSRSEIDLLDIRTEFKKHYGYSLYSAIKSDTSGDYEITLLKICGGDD
UniProt Q9NQW6: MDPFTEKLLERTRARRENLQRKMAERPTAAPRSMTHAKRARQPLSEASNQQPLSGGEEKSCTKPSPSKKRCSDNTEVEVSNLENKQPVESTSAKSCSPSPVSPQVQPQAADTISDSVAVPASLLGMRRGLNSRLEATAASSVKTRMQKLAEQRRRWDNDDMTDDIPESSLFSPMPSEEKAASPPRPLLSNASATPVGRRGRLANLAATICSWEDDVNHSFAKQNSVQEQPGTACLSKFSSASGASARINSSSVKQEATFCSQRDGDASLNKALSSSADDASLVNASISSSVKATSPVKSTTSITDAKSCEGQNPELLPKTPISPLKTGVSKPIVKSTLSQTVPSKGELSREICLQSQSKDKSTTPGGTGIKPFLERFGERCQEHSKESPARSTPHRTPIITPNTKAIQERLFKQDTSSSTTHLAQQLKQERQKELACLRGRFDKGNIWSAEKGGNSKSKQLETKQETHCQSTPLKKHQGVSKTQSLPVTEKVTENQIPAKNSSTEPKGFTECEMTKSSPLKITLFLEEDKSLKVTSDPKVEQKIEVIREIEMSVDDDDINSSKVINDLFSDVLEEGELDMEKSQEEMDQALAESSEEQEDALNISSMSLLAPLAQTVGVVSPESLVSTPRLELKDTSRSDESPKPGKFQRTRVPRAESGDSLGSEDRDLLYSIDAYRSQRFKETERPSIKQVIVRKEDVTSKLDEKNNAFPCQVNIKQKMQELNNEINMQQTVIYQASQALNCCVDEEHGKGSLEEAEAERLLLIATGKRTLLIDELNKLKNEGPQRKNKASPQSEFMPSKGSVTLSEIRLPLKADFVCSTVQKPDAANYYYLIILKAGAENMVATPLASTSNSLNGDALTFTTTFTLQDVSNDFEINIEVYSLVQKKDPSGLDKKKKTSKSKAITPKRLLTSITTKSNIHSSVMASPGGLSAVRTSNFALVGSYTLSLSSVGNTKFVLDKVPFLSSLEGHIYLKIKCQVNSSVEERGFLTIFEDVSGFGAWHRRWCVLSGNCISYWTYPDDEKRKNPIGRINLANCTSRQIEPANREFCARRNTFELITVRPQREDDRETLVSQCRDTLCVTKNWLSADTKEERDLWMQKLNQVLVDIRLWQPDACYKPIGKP
UniProt P08758: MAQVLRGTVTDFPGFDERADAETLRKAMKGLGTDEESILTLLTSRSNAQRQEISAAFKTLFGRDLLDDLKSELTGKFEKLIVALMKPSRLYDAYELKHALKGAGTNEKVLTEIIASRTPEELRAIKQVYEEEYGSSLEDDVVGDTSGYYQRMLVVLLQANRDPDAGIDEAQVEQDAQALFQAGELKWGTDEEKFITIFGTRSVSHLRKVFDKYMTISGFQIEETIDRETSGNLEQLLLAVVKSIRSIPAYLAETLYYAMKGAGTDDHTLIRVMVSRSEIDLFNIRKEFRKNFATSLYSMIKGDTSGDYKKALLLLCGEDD

pictilisib = compound: CS(=O)(=O)N1CCN(Cc2cc3nc(-c4cccc5[nH]ncc45)nc(N4CCOCC4)c3s2)CC1 [pictilisib]
Outline: as §1

crizotinib = compound: C[C@@H](Oc1cc(-c2cnn(C3CCNCC3)c2)cnc1N)c1c(Cl)ccc(F)c1Cl [crizotinib]
Outline: as §1

[1] = compound: C[C@H](C1=CC=C(C=C1)C(=O)NC2=C3C=CNC3=NC=C2)N
Outline: as §1

duvelisib = compound: C[C@H](Nc1ncnc2nc[nH]c12)c1cc2cccc(Cl)c2c(=O)n1-c1ccccc1 [duvelisib]
Outline: as §1

gandotinib = compound: Cc1cc(Nc2cc(CN3CCOCC3)c3nc(C)c(Cc4ccc(Cl)cc4F)n3n2)n[nH]1 [gandotinib]
Outline: as §1

tozasertib = compound: Cc1cc(Nc2cc(N3CCN(C)CC3)nc(Sc3ccc(NC(=O)C4CC4)cc3)n2)n[nH]1 [tozasertib]
Outline: as §1

doramapimod = compound: Cc1ccc(-n2nc(C(C)(C)C)cc2NC(=O)Nc2ccc(OCCN3CCOCC3)c3ccccc23)cc1 [doramapimod]
Outline: as §1

bafetinib = compound: Cc1ccc(NC(=O)c2ccc(CN3CC[C@H](N(C)C)C3)c(C(F)(F)F)c2)cc1Nc1nccc(-c2cncnc2)n1 [bafetinib]
Outline: as §1

[2] = compound: Cc1cccc(CC(=O)N2CCc3c2ccc(-c2cn(C)c4ncnc(N)c24)c3F)n1
Outline: as §1

nilotinib = compound: Cc1cn(-c2cc(NC(=O)c3ccc(C)c(Nc4nccc(-c5cccnc5)n4)c3)cc(C(F)(F)F)c2)cn1 [nilotinib]
Outline: as §1

[3] = compound: Cc1nc(Nc2n[nH]c3c2CN(C(=O)N[C@H](CN(C)C)c2ccccc2)C3(C)C)c2sccc2n1
Outline: as §1

dasatinib = compound: Cc1nc(Nc2ncc(C(=O)Nc3c(C)cccc3Cl)s2)cc(N2CCN(CCO)CC2)n1 [dasatinib]
Outline: as §1

[4] = compound: Cc1ncc(-c2ccnc(Nc3ccc(S(C)(=O)=O)cc3)n2)n1C(C)C
Outline: as §1

[5] = compound: Cn1cc(-c2ccc3c(c2)CCN3C(=O)Cc2cccc(C(F)(F)F)c2)c2c(N)ncnc21
Outline: as §1

quisinostat = compound: Cn1cc(CNCC2CCN(c3ncc(C(=O)NO)cn3)CC2)c2ccccc21 [quisinostat]
Outline: as §1

tipifarnib = compound: Cn1cncc1[C@@](N)(c1ccc(Cl)cc1)c1ccc2c(c1)c(-c1cccc(Cl)c1)cc(=O)n2C [tipifarnib]
Outline: as §1

[6] = compound: NC(=O)Nc1cc(-c2cccc(F)c2)sc1C(=O)N[C@H]1CCCNC1
Outline: as §1

[7] = compound: NC(=O)c1cnc(N[C@@H]2CCCC[C@@H]2N)nc1Nc1cccc(-n2nccn2)c1
Outline: as §1

[8] = compound: NC1(c2ccc(-c3nc4ccn5c(=O)[nH]nc5c4cc3-c3ccccc3)cc2)CCC1
Outline: as §1

Measured: log2 fold change

ANKRD28 (UniProt O15084)
inactive: lapatinib 0.006 | pictilisib 0.021 | crizotinib -0.06 | [1] -0.003 | duvelisib -0.012 | gandotinib -0.005 | tozasertib -0.008 | doramapimod 0.066 | bafetinib -0.015 | [2] 0 | nilotinib 0.007 | [3] 0.003 | dasatinib -0.045 | [4] -0.007 | [5] -0.004 | quisinostat -0.042 | tipifarnib -0.029 | [6] -0.012 | [7] 0.009 | [8] -0.031

ANGEL2 (UniProt Q5VTE6)
inactive: lapatinib 0.051 | pictilisib 0.047 | crizotinib -0.066 | [1] 0.006 | duvelisib 0.003 | gandotinib 0.061 | tozasertib 0.034 | doramapimod 0.036 | bafetinib 0.02 | [2] -0.029 | nilotinib 0.01 | [3] 0.057 | dasatinib -0.011 | [4] -0.033 | [5] 0.003 | quisinostat -0.062 | tipifarnib 0.039 | [6] 0.035 | [7] -0.087 | [8] -0.171

AKT2 (UniProt P31751)
inactive: lapatinib -0.022 | pictilisib 0.005 | crizotinib 0.015 | [1] -0.007 | duvelisib -0.005 | gandotinib -0.022 | tozasertib 0.033 | doramapimod -0.015 | bafetinib 0.051 | [2] -0.036 | nilotinib -0.013 | [3] -0.004 | dasatinib 0.003 | [4] -0.008 | [5] 0.005 | quisinostat 0.001 | tipifarnib 0.017 | [6] 0.019 | [7] -0.015
active: [8] 0.559

ALDH1B1 (UniProt P30837)
inactive: lapatinib -0.012 | pictilisib 0.008 | crizotinib -0.007 | [1] -0.024 | duvelisib 0.058 | gandotinib 0.052 | tozasertib 0.021 | doramapimod -0.017 | bafetinib -0.049 | [2] -0.041 | nilotinib 0.096 | [3] -0.015 | dasatinib -0.022 | [4] 0.013 | [5] 0.034 | quisinostat 0.118 | tipifarnib 0.05 | [6] 0.046 | [7] 0.011 | [8] 0.003

ALDOA (UniProt P04075)
inactive: lapatinib 0.025 | pictilisib 0 | crizotinib 0.006 | [1] -0.032 | duvelisib -0.015 | gandotinib 0.052 | tozasertib -0.002 | doramapimod 0.019 | bafetinib 0.043 | [2] 0.02 | nilotinib 0.017 | [3] -0.012 | dasatinib 0.011 | [4] 0.001 | [5] -0.063 | quisinostat -0.004 | tipifarnib 0.004 | [6] -0.015 | [7] -0.027 | [8] 0.009

AKT1S1 isoform 3 (UniProt Q96B36)
inactive: lapatinib 0.015 | pictilisib -0.001 | crizotinib 0.019 | [1] 0.026 | duvelisib -0.003 | gandotinib 0.024 | tozasertib -0.026 | doramapimod 0.009 | bafetinib -0.037 | [2] -0.002 | nilotinib 0.036 | [3] 0.025 | dasatinib 0.008 | [4] -0.002 | [5] 0.018 | quisinostat -0.014 | tipifarnib -0.037 | [6] -0.004 | [7] 0 | [8] 0.019

AP3M1 (UniProt Q9Y2T2)
inactive: lapatinib 0.002 | pictilisib 0.006 | crizotinib -0.02 | [1] -0.045 | duvelisib 0.021 | gandotinib 0.042 | tozasertib 0.017 | doramapimod 0.02 | bafetinib -0.041 | [2] 0.056 | nilotinib 0.001 | [3] -0.001 | dasatinib -0.032 | [4] -0.005 | [5] 0.007 | quisinostat 0.015 | tipifarnib 0.008 | [6] 0.018 | [7] -0.005 | [8] 0.006

Quoted from the entries so far (3 entries):
AKT2 (UniProt P31751)
inactive: lapatinib -0.022 | pictilisib 0.005 | crizotinib 0.015 | [1] -0.007 | duvelisib -0.005 | gandotinib -0.022 | tozasertib 0.033 | doramapimod -0.015 | bafetinib 0.051 | [2] -0.036 | nilotinib -0.013 | [3] -0.004 | dasatinib 0.003 | [4] -0.008 | [5] 0.005 | quisinostat 0.001 | tipifarnib 0.017 | [6] 0.019 | [7] -0.015
active: [8] 0.559

ALDH1B1 (UniProt P30837)
inactive: lapatinib -0.012 | pictilisib 0.008 | crizotinib -0.007 | [1] -0.024 | duvelisib 0.058 | gandotinib 0.052 | tozasertib 0.021 | doramapimod -0.017 | bafetinib -0.049 | [2] -0.041 | nilotinib 0.096 | [3] -0.015 | dasatinib -0.022 | [4] 0.013 | [5] 0.034 | quisinostat 0.118 | tipifarnib 0.05 | [6] 0.046 | [7] 0.011 | [8] 0.003

ALDOA (UniProt P04075)
inactive: lapatinib 0.025 | pictilisib 0 | crizotinib 0.006 | [1] -0.032 | duvelisib -0.015 | gandotinib 0.052 | tozasertib -0.002 | doramapimod 0.019 | bafetinib 0.043 | [2] 0.02 | nilotinib 0.017 | [3] -0.012 | dasatinib 0.011 | [4] 0.001 | [5] -0.063 | quisinostat -0.004 | tipifarnib 0.004 | [6] -0.015 | [7] -0.027 | [8] 0.009

Remaining list, next part

AP1B1 (UniProt Q10567)
inactive: lapatinib 0.004 | pictilisib -0.017 | crizotinib -0.009 | [1] -0.021 | duvelisib -0.011 | gandotinib 0.027 | tozasertib -0.012 | doramapimod 0.06 | bafetinib -0.03 | [2] 0.009 | nilotinib 0.027 | [3] -0.009 | dasatinib 0.02 | [4] -0.009 | [5] -0.008 | quisinostat -0.034 | tipifarnib 0.015 | [6] 0.006 | [7] -0.012 | [8] 0.015

AP2A2 isoform 2 (UniProt O94973)
inactive: lapatinib 0.005 | pictilisib -0.036 | crizotinib -0.016 | [1] -0.056 | duvelisib -0.008 | gandotinib -0.005 | tozasertib -0.007 | doramapimod 0.051 | bafetinib 0.014 | [2] 0.005 | nilotinib 0 | [3] 0.046 | dasatinib 0.008 | [4] 0.059 | [5] -0.063 | quisinostat -0.008 | tipifarnib -0.015 | [6] -0.01 | [7] -0.027 | [8] -0.038

ALDH5A1 isoform 2 (UniProt P51649)
inactive: lapatinib -0.012 | pictilisib -0.049 | crizotinib -0.044 | [1] 0 | duvelisib -0.056 | gandotinib -0.059 | tozasertib 0.005 | doramapimod -0.011 | bafetinib 0.008 | [2] -0.035 | nilotinib 0.003 | [3] -0.019 | dasatinib -0.005 | [4] -0.015 | [5] -0.003 | quisinostat 0.028 | tipifarnib -0.063 | [6] 0.04 | [7] 0.004 | [8] -0.023

ANXA6 (UniProt P08133)
inactive: lapatinib 0.006 | pictilisib -0.034 | crizotinib -0.014 | [1] -0.091 | duvelisib 0.005 | gandotinib 0.014 | tozasertib 0.044 | doramapimod 0.022 | bafetinib -0.051 | [2] 0.084 | nilotinib -0.019 | [3] 0.004 | dasatinib -0.016 | [4] -0.015 | [5] 0.047 | quisinostat 0.003 | tipifarnib 0.003 | [6] 0.02 | [7] 0.007 | [8] 0.041

ANO10 (UniProt Q9NW15)
inactive: lapatinib -0.016 | pictilisib -0.01 | crizotinib -0.063 | [1] -0.007 | duvelisib 0.006 | gandotinib -0.046 | tozasertib -0.003 | doramapimod -0.006 | bafetinib 0.036 | [2] 0.032 | nilotinib 0.019 | [3] 0.031 | dasatinib -0.007 | [4] -0.004 | [5] 0.003 | quisinostat -0.009 | tipifarnib -0.062 | [6] 0.015 | [7] -0.005 | [8] 0

ANXA4 (UniProt P09525)
inactive: lapatinib -0.011 | pictilisib -0.009 | crizotinib -0.015 | [1] -0.018 | duvelisib -0.045 | gandotinib -0.005 | tozasertib 0.064 | doramapimod 0.016 | bafetinib -0.021 | [2] 0.015 | nilotinib 0.007 | [3] -0.007 | dasatinib 0.074 | [4] -0.013 | [5] -0.016 | quisinostat 0.004 | tipifarnib -0.009 | [6] 0.034 | [7] 0.008 | [8] -0.007

ANXA3 (UniProt P12429)
inactive: lapatinib 0.006 | pictilisib -0.004 | crizotinib 0.005 | [1] -0.015 | duvelisib -0.025 | gandotinib -0.011 | tozasertib 0.018 | doramapimod 0.023 | bafetinib -0.02 | [2] 0.001 | nilotinib 0.02 | [3] 0.015 | dasatinib 0.029 | [4] -0.032 | [5] 0.023 | quisinostat 0.033 | tipifarnib -0.02 | [6] -0.016 | [7] 0.008 | [8] 0.039

ANLN (UniProt Q9NQW6)
inactive: lapatinib -0.007 | pictilisib 0.004 | crizotinib -0.02 | [1] -0.037 | duvelisib -0.02 | gandotinib 0.024 | tozasertib 0.052 | doramapimod 0.01 | bafetinib -0.038 | [2] 0.028 | nilotinib -0.023 | [3] 0.047 | dasatinib -0.009 | [4] -0.018 | [5] 0.04 | quisinostat -0.072 | tipifarnib -0.041 | [6] 0.006 | [7] -0.013 | [8] 0.015

ANXA5 (UniProt P08758)
inactive: lapatinib 0.005 | pictilisib -0.009 | crizotinib 0.046 | [1] 0.059 | duvelisib -0.028 | gandotinib -0.119 | tozasertib 0.019 | doramapimod 0.015 | bafetinib -0.018 | [2] -0.065 | nilotinib 0.031 | [3] -0.008 | dasatinib -0.009 | [4] -0.067 | [5] 0.022 | quisinostat 0.111 | tipifarnib 0.019 | [6] 0.018 | [7] 0.01 | [8] 0.012
